Measurements as given in PubChem BioAssay AID2685 (National Center for Advancing Translational Sciences (NCATS), 2010).
Among all 320,000 compounds or so, about 2,100 (0.66%) were called active. Inconclusive results, whose numbers are uncertain, are shown with a selection of clear calls. Calls come from the whole dose curve; as a rule, active = well fitted inhibition curve with a large enough effect in the signal ratio, with a control signal flat (not every such curve was filed as active); inconclusive = small, poorly fitted or top-dose-only effect, or effect the other way, or a change in a side signal; inactive = flat fitted curve, though single readings scatter; the % refers to the signal ratio. Potencies of inconclusive entries are doubtful fits and often do not repeat.

Test: qHTS Assay for Lipid Storage Modulators in Drosophila S3 Cells
Settings: BODIPY lipid droplet fluorescence, 18-24 h, cells fed with added oleic acid; lipid storage change, negative = inhibition: at 46.1 µM (top of the series) unless noted
In short: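 Drosophila S3 cells loaded with oleic acid (400 uM, as added) and compounds at several concentrations; lipid droplets imaged by 488-nm laser-scanning cytometry, 500–530 nm intensity and object ratio to cell channel. Percent activity normalized to 20 uM Triacsin C.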
% is set by controls: 0 for no effect and ±100 for the full control effect; potency is the fitted concentration of half-maximal effect.

SMILES | lipid storage change, negative = inhibition | Potency | outcome
O=C(NCCCn1ccnc1)Nc1ccc(Cl)cc1Cl | inconclusive: -11.9% |  | 
Cc1ccc(C(=O)Cn2c(C)cc(C)c(C#N)c2=O)cc1 | inconclusive: 32.3% |  | 
O=C(Nc1cccc(-c2nnc(-c3ccccc3)o2)c1)c1ccc(Br)o1 |  | inconclusive: 259 nM [activator, full curve] | 
COC(=O)c1ccccc1NC(=O)CSc1nc(-c2ccco2)cc(C(F)(F)F)n1 |  | inconclusive: 206 nM [activator, full curve] | 
O=C(N/N=C/C=C/c1ccc2c(c1)OCO2)C(O)c1ccccc1 (centres undefined) |  | inconclusive: 731 nM [activator, full curve] | 
CCOC(=O)C1CCCN(c2cc(=O)n(Cc3ccc(F)cc3)c(=O)[nH]2)C1 (centres undefined) |  | inconclusive: 5.8 nM [activator, full curve, poor fit] | 
Cc1ccc(NC(=O)CCC(=O)OCCCC(F)(F)C(F)(F)F)cc1 | inactive: -0.336% |  | 
COC(=O)C1=C(C)N(c2ccc(Br)cc2)C(=O)/C1=C\c1ccco1 |  | inconclusive: 130 nM [falling, full curve, poor fit] | 
O=C1CC(/C=C/c2ccco2)=Nc2ccccc2N1 | inconclusive: -10.9% |  | 
CCn1cc(C(C)(C)C)c(C#N)c1NC(C)=O | inconclusive: 5.88% |  | 
CC1CC(C)CN(CCCNS(=O)(=O)c2ccc3c(c2)CCN3C(=O)C2CC2)C1 (centres undefined) |  | inconclusive: 3660 nM [activator, partial curve, poor fit] | 
Cc1ccc(C2CC(c3ccccc3)=NN2C(=S)Nc2ccccc2)o1 (centres undefined) |  | inconclusive: 130 nM [activator, full curve, poor fit] | 
O=C(CSc1n[nH]c(-c2ccncc2)n1)Nc1ccc(F)cc1 |  | inconclusive: 103 nM [falling, full curve, poor fit] | 
CCOc1cc2c(cc1OCC)C(c1ccc(OC)c(OC)c1)N(c1ccc(C(=O)O)cc1)C(=O)C2 (centres undefined) | inconclusive: -31.6% |  | 
CC1(C)CN(c2cccc(-c3ccnc4ncnn34)c2)C1=O | inconclusive: -17.8% |  | 
Cc1cc(C)cc(NC(=O)COC(=O)CC2CCCC2)c1 | inconclusive: 6.54% |  | 
C=CCC1NS(=O)(=O)OC2CCCC12 (centres undefined) | inconclusive: 78.4% |  | 
COCCCNC(=O)C1CCC(=O)N(c2ccc3c(c2)OCO3)C1c1ccc(OC)cc1 (centres undefined) | inconclusive: 0.618% |  | 
COc1cc(NC(=S)NC(=O)C(C)C)ccc1NC(=O)c1cc2ccccc2o1 | inconclusive: 15.1% |  | 
O=C(NNS(=O)(=O)c1ccc(F)cc1)c1sccc1-n1cccc1 |  | inconclusive: 103 nM [falling, full curve, poor fit] | 
CN(C(=O)CSc1nnc(-c2n[nH]c3ccccc23)o1)c1ccccc1 | inconclusive: -25.2% |  | 
CCn1c(O)c(N=NC(=O)CNC(=O)c2ccco2)c2ccccc21 | inconclusive: 14.4% |  | 
Cc1nn(C)cc1/C=N/NC(=S)Nc1ccc(Cl)cc1Cl | inconclusive: 5.62% |  | 
CCOC(=O)CN(C(=O)c1snc(C(N)=O)c1N)C(C(=O)NCCC(C)C)c1ccc(F)cc1 (centres undefined) | inconclusive: 45.1% |  | 
O=c1[nH]cnc2c1ncn2[C@@H]1C[C@@H](O)[C@H](CO)O1 | inconclusive: 23% |  | 

Looked up above:
lipid storage change, negative = inhibition with `CCOc1cc2c(cc1OCC)C(c1ccc(OC)c(OC)c1)N(c1ccc(C(=O)O)cc1)C(=O)C2` (centres undefined) reads inconclusive: -31.6%
lipid storage change, negative = inhibition with `CCn1cc(C(C)(C)C)c(C#N)c1NC(C)=O` reads inconclusive: 5.88%
lipid storage change, negative = inhibition with `COCCCNC(=O)C1CCC(=O)N(c2ccc3c(c2)OCO3)C1c1ccc(OC)cc1` (centres undefined) reads inconclusive: 0.618%

(further entries)

SMILES | lipid storage change, negative = inhibition | Potency | outcome
NC1=NC(c2cn[nH]c2-c2ccc(F)cc2)n2c(nc3ccccc32)N1 (centres undefined) | inconclusive: -11% |  | 
COc1ccc(N2CCN(S(=O)(=O)c3cccc(C(F)(F)F)c3)CC2)cc1 | inconclusive: 15.7% |  | 
Cc1cc(-c2nnc(SCC(=O)Nc3ccccc3C(F)(F)F)o2)c(C)n1-c1ccccc1 |  | inconclusive: 130 nM [activator, full curve, poor fit] | 
COc1ccc(Br)cc1/C=N/N1C(=O)CSC1=S | inconclusive: -100% |  | 
COc1ccc(C(=S)N2CCN(c3cccc(Cl)c3)CC2)cc1 | inconclusive: 20% |  | 
COc1ccc(OC)c(S(=O)(=O)N2CCC(C(=O)N(C)Cc3ccccc3)CC2)c1 | inconclusive: 34.3% |  | 
N#Cc1ccc(OCCN2C(=O)NC3(CCSC3)C2=O)cc1 (centres undefined) |  | inconclusive: 29100 nM [activator, single point] | 
COc1ccc(NC(=O)Nc2ccc(OCC(=O)N3CCOCC3)cc2)cc1OC | inconclusive: 3.66% |  | 
CCOC(=O)N1CCC(N2CC34C=CC(O3)C(C(=O)Nc3ccc(C(C)C)cc3)C4C2=O)CC1 (centres undefined) | inconclusive: 66.4% [activator] |  | 
CC(=O)Oc1ccc(/C=N/NC(=O)CCSc2ccccc2)cc1 | inconclusive: 7.98% |  | 
COc1ccccc1NC(=O)c1ccc(C)s1 | inconclusive: 59.1% |  | 
CCOC(=O)c1c(O)c(O)c(C(=O)OCC)n1-c1ccccc1 | inactive: -6.73% |  | 
CC(=O)Nc1ccc(Nc2cc(C)nc(Nc3ccc(NC(C)=O)cc3)n2)cc1 |  | inconclusive: 16400 nM [activator, partial curve] | 
CS(=O)(=O)Nc1ccc(C(=O)NC2CCCCC2)cc1 | inconclusive: 38.1% |  | 
COc1ccc(C2Nc3ccccc3C(=O)N2Cc2ccco2)cc1COc1ccccc1F (centres undefined) | inconclusive: 272% |  | 
O=C(CCCCCNC(=O)c1ccccc1)N/N=C/c1ccco1 |  |  | inactive [at 46.1 µM]
Cc1occc1C(=O)N1CCN(Cc2ccccc2)CC1 |  | inconclusive: 517 nM [falling, full curve] | 
COc1ccc(/C(C)=N/Nc2nc(C)c(C(C)=O)s2)cc1 |  | inconclusive: 29100 nM [falling, single point] | 
CCc1ccccc1N(CC(=O)O)S(C)(=O)=O |  | inconclusive: 25900 nM [falling, partial curve] | 
O=Cc1cn(-c2ccccc2)nc1-c1ccncc1 |  | inconclusive: 116 nM [activator, full curve, poor fit] | 
COC(=O)C(NC(=O)c1ccco1)(Nc1ccc(Br)cn1)C(F)(F)F (centres undefined) |  | inconclusive: 6510 nM [falling, single point] | 
Cc1ccc(O)c(Cn2nnc3ccccc32)c1 | inconclusive: -9.34% |  | 
Cc1noc(NS(=O)(=O)c2ccc(NC(=O)CSc3nc4ccccc4[nH]3)cc2)c1C | inconclusive: -12.3% |  | 
O=C1C(Nc2ccccc2)=C(N2CCCCC2)C(=O)c2ccccc21 | inconclusive: -23.5% |  | 
